These are yes or no findings as the source states them, for the method shown.

For assay [1], the target named is mouse Kirrel2 D1 Q101A (mouse) (UniProt Q7TSU7). As to the kind of experiment: SEC.
Assay [2] has as its target mouse Kirrel3 Q128A ectodomain (mouse) (UniProt Q8BR86). As to the kind of experiment: SEC-MALS. In general terms: In gel filtration, larger molecules generally elute earlier.

B1: mouse Kirrel2 D1 Q101A (domain or fragment, UniProt Q7TSU7 21-119)
chain: PHFLQQPEDMVVLLGEEARLPCALGAYRGLVQWTKDGLALGGERDLPGWSRYWISGNSASGQHDLHIKPVELEDEASYECAASQAGLRSRPAQLHVMVP
On to B1, for which the binding entry in assay [1] is on record as “no binding”.

B2: mouse Kirrel3 Q128A ectodomain (domain or fragment, UniProt Q8BR86 22-535)
chain: LQKRGCCLVLGYMAKDKFRRMNEGQVYSFSQQPQDQVVVSGQPVTLLCAIPEYDGFVLWIKDGLALGVGRDLSSYPQYLVVGNHLSGEHHLKILRAELQDDAVYECAAIQAAIRSRPARLTVLVPPDDPIILGGPVISLRAGDPLNLTCHADNAKPAASIIWLRKGEVINGATYSKTLLRDGKRESIVSTLFISPGDVENGQSIVCRATNKAIPGGKETSVTIDIQHPPLVNLSVEPQPVLEDNIVTFHCSAKANPAVTQYRWAKRGHIIKEASGELYRTTVDYTYFSEPVSCEVTNALGSTNLSRTVDVYFGPRMTSEPQSLLVDLGSDAVFSCAWIGNPSLTIVWMKRGSGVVLSNEKTLTLKSVRQEDAGKYVCRAVVPRVGAGEREVTLTVNGPPIISSTQTQHALHGEKGQIKCFIRSTPPPDRIAWSWKENVLESGTSGRYTVETVNTEEGVISTLTISNIVRADFQTIYNCTAWNSFGSDTEIIRLKEQGSEMKSGAGLEAESVPMA
Turning to B2, in assay [2], the binding result was “no binding”.

The values are drawn from paper doi:10.1101/2021.03.09.434456 (bioRxiv, 2021).
